# Reference: PubChem BioAssay AID540275 (National Center for Advancing Translational Sciences (NCATS), 2011)
# The chains behind the UniProt entries cited, without tags or fusion partners.
# UniProt Q8NER1, whole entry, looked up: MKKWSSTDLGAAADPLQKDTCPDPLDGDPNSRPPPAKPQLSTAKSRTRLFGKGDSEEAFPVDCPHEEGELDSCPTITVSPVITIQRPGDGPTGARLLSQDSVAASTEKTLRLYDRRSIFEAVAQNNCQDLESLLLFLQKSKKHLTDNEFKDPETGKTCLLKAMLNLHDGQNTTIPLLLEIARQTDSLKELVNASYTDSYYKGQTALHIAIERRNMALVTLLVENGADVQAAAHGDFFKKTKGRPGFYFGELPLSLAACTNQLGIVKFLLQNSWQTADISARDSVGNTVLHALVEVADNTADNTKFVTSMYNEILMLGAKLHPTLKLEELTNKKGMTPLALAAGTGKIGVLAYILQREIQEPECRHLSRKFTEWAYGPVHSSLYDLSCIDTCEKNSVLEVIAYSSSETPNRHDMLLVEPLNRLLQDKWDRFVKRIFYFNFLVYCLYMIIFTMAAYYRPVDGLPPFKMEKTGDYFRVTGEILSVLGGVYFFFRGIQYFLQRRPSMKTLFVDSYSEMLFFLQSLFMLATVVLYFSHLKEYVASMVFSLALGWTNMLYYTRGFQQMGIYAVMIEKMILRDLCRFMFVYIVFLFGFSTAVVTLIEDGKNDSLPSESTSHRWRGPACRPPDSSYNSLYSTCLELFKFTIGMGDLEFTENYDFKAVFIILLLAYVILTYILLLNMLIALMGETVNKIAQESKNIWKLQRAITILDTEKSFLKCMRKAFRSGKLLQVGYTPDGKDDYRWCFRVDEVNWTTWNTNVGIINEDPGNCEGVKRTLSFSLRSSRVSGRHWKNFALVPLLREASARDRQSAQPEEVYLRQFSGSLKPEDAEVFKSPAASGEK
# Among all 320,000 compounds or so, about 620 (0.19%) were called active. This list was built around the results that the source calls inconclusive (neither active nor inactive); the mix of calls is not that of the screen. No stated cut-off is given here; in the data, active means activation above about 80%; inconclusive means between about 30% and that limit; inactive means weaker than that.
# Molecular target: Transient receptor potential cation channel subfamily V member 1 (Homo sapiens) (UniProt Q8NER1)
# Assay: HTS Assay for Compounds that Act as Agonists of the Vanilloid Receptor 1; further: 0% is about no effect
# Conditions: TRPV1-expressing cells, Fluo-8 calcium influx, agonist mode; at 8.33 µM, hits give high values
# How it was run: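 Fluo-8 calcium influx in TRPV1-expressing cells, kinetic read (ex 480/em 520 nm). Compound added and read 3 min for agonist activity, followed by capsaicin at EC20 final and 2 min further read for enhancement.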
row,SMILES,activation
1,CCOC(=O)c1ccc(N2Cc3ccccc3C2=NC(=O)c2cccs2)cc1,inconclusive: 53.8%
2,CCOC(=O)N1CCC(N2CCCC(C(=O)c3ccc4cc(OC)ccc4c3)C2)CC1 (stereo not given),inconclusive: 34.7%
3,CC(C)(C)n1nnnc1C(c1ccc(F)cc1)N(Cc1ccc(F)cc1)Cc1ccco1 (stereo not given),inactive: 18.6%
4,CC12CC3CC(C)(C1)CC(C(=O)NC1=NCCS1)(C3)C2,inconclusive: 59.9%
5,Cc1cc(-c2ccccc2)nc(N/N=C/c2ccco2)n1,inconclusive: 63%
6,Cc1ccc2[nH]c(C(=O)N3CCCCC3)cc2c1,inconclusive: 31.7%
7,O=C(CCCSc1nc(-c2ccco2)cc(C(F)(F)F)n1)NCc1cccs1,inconclusive: 41.4%
8,CCC1CCc2sc(C(=O)NC3CCN(Cc4ccccc4)CC3)cc2C1 (stereo not given),inconclusive: 32.3%
9,S=C(NCCSCc1ccc(Cl)cc1Cl)Nc1ccccc1,inconclusive: 38.1%
10,Cc1c(C(=O)N2CCN(c3ccccc3)CC2)sc2ncnc(N3CCN(c4ccccn4)CC3)c12,inactive: -1.4%
11,CC1=CC(=C(C#N)C#N)C=C(C)N1Cc1ccc(Cl)cc1,inconclusive: 39.9%
12,CC1CCCC(C)N1C(=O)CN1C(=O)C(C)(C)Oc2ccc(C(=O)NC3CCCCC3)cc21 (stereo not given),inconclusive: 42.4%
13,O=C(Nc1cccs1)Nc1cccnc1Cl,inconclusive: 39.9%
14,COc1cccc(Nc2nc(CN3CCOCC3)nc3sc4c(c23)CCCC4)c1,inconclusive: 71.6%
15,O=C(c1ccccc1)c1ccccc1NC(=O)C1CCCN1Cc1ccccc1 (stereo not given),inconclusive: 51.6%
16,CN(C)C(=O)c1ccc2c3c(cccc13)CC2,inconclusive: 53.6%
17,CCN(c1ccccc1)S(=O)(=O)c1ccc(C(=O)Nc2ccncc2)cc1,inconclusive: 51.6%
18,NC(=O)C1CCN(c2ccc(C(F)(F)F)cc2[N+](=O)[O-])CC1,inconclusive: 34.6%
19,O=C(Nc1ccc(N2CCCC2)c(Cl)c1)c1cccs1,inconclusive: 70.8%
20,O=C(NCCCc1ccccc1)c1ccc([N+](=O)[O-])cc1Cl,inconclusive: 41.2%
21,COc1ccccc1NC(=O)NC1CCCCCCC1,inactive: 22.7%
22,Cc1ncc(CO)c(/C=N/NC(=O)c2ccc(O)cc2)c1O,inactive: 3.22%
23,O=C(c1ccco1)N1CCN(C(c2cccs2)c2sc3ncnn3c2O)CC1 (stereo not given),inactive: -0.557%
24,Cc1ccccc1CN(C)CC(=O)Nc1ccccc1-c1ccccc1,inconclusive: 35%
25,O=C(NCCC1=CCCCC1)c1ccc(Cl)c([N+](=O)[O-])c1,inconclusive: 79.6%

# Reformatted as tab-separated lines: 2 of the compounds above
row	SMILES	activation
13	O=C(Nc1cccs1)Nc1cccnc1Cl	inconclusive: 39.9%
14	COc1cccc(Nc2nc(CN3CCOCC3)nc3sc4c(c23)CCCC4)c1	inconclusive: 71.6%
